# PubChem BioAssay AID588497 (NMMLSC, 2011)
# In all, about 360,000 compounds went through this assay and about 780 (0.22%) were called active. This list was built around the results that the source calls inconclusive (neither active nor inactive); the mix of calls is not that of the screen. Cut-off read from the data, not from the text of the source: active = inhibition above about 35% (passing the limit was not always enough); inconclusive = no clear call, values can overlap the other calls.
# Test system: Botulinum neurotoxin type F light chain protease (Clostridium botulinum)
# Experiment: BoNT/F light chain protease inhibitors, primary screen, biochemical, flow cytometry, MLPCN library (AID 588497); note: plate controls were buffer without enzyme for full effect and enzyme alone for no effect
# Conditions: Multiplex microsphere protease cleavage assay, at 10 µM, stronger effect = higher value
row,Compound,inhibition
1,COc1ccc(S(=O)(=O)Nc2cc(C)c(O)c(S(=O)(=O)c3ccccc3)c2)cc1,inactive: 7.9%
2,CN(C)S(=O)(=O)N1CCN(CC(=O)Nc2ccc(F)cc2)CC1,inconclusive: 32.5%
3,O=C(COc1ccc(Br)cc1)Nc1ccccc1C(=O)NC1CC1,inconclusive: -10.6%
4,CCOCCCNC(=O)C1CCCN(S(=O)(=O)c2ccc(-n3cnnn3)cc2)C1 (configuration not stated),inactive: 9.3%
5,CC(OC(=O)CCCc1c[nH]c2ccccc12)C(=O)Nc1ccc(S(N)(=O)=O)cc1 (configuration not stated),inconclusive: -2.7%
6,Cc1nn(CC(N)=O)c(=O)c2ccccc12,inactive: -5.1%
7,COc1ccc(C2=NCCn3nc4cc(OC)ccc4c32)cc1,inactive: -11.2%
8,Cc1ccc([C@H]2C[C@@H](O)[C@H](n3cc(C4CC4)nn3)CN2C(=O)c2cccs2)cc1,inactive: -4%
9,CC(C)=CCC[C@H](C)C[C@@H]1CC2=C(C(=O)OC(C)(C)O2)[C@H](c2ccc(F)cc2)O1,inactive: -9.6%
10,CCNC(=S)NCCC1=c2ccccc2=N/C1=C\c1c(O)n(C)c(=O)n(C)c1=O,inconclusive: -57.6%
11,CN(Cc1ccccc1)C(=O)COC(=O)CCN1C(=O)C2CC=CCC2C1=O (configuration not stated),inactive: -5.6%
12,N#C/C(=N\Nc1ccccc1)C(=N)N1CCCCCC1,inconclusive: 34%
13,COCCNC(=O)c1cc(Br)ccc1Cl,inactive: -1.7%
14,Cc1oc2ccc(OCc3ccccc3Cl)cc2c1C(=O)O,inconclusive: -3.2%
15,O=C(CNC(=O)c1ccc(Br)cc1)NCCc1nc2ccccc2[nH]1,inactive: -1.9%
16,Cc1cccc(N(C(=O)CNC(=O)c2ccco2)C(C(=O)NC2CCCC2)c2cccnc2)c1 (configuration not stated),inconclusive: 29.1%
17,Fc1ccccc1CNCCc1ccc2c(c1)OCO2,inconclusive: -67.2%
18,Cc1cc(C)c(C)c(OCCNCc2ccccc2)c1,inconclusive: -37.6%
19,O=C1C(Cl)=C(N2CCOCC2)C(=O)N1c1cccc(C(F)(F)F)c1,inconclusive: -52.7%
20,CC(C)C(C(=O)Nc1sc2c(c1C#N)CCCCC2)N1C(=O)c2ccccc2C1=O (configuration not stated),inconclusive: 3.8%
21,COC(=O)CCC(=O)NNC(=O)c1cccc(Br)c1,inactive: 5.1%
22,COc1cc(OC)nc(NC(=O)C(C)C)n1,inactive: 12%
23,COC(=O)c1cc(NC(=O)Cc2ccccc2[N+](=O)[O-])cc(C(=O)OC)c1,inactive: 3.4%

# Part of the list above in order of length of the SMILES, largest number first:
row,Compound,inhibition
16,Cc1cccc(N(C(=O)CNC(=O)c2ccco2)C(C(=O)NC2CCCC2)c2cccnc2)c1 (configuration not stated),inconclusive: 29.1%
15,O=C(CNC(=O)c1ccc(Br)cc1)NCCc1nc2ccccc2[nH]1,inactive: -1.9%
7,COc1ccc(C2=NCCn3nc4cc(OC)ccc4c32)cc1,inactive: -11.2%

# Among those listed so far, 2 have a furan ring, fused or not:
row,Compound,inhibition
14,Cc1oc2ccc(OCc3ccccc3Cl)cc2c1C(=O)O,inconclusive: -3.2%
16,Cc1cccc(N(C(=O)CNC(=O)c2ccco2)C(C(=O)NC2CCCC2)c2cccnc2)c1 (configuration not stated),inconclusive: 29.1%

# (list continues)

row,Compound,inhibition
1,O=C(N/N=C/c1ccc(Cl)cc1Cl)c1ccncc1,inconclusive: -7.2%
2,O=[N+]([O-])c1ccc(O)c(/C=N/NC2=NS(=O)(=O)c3ccccc32)c1,active: 41.1%
3,COC(=O)C1=CN(Cc2ccc(OC)cc2)C=C(C(=O)OC)C1c1cc(OC)c(OC)c(OC)c1,active: 41.1%
4,CC(=O)c1ccc(NC(=O)COC(=O)CCC(=O)c2cccs2)cc1,inactive: -3.4%
5,CCC(=O)c1ccc(OCC(=O)OCC(=O)N(C)CC(=O)Nc2ccc(F)cc2)cc1,inconclusive: 8.1%
6,CCc1ccc(-n2c(O)c(C(C)=O)c(=O)[nH]c2=O)cc1 (tested in a mixture with another compound),inconclusive: -44.9%
7,CC(=O)c1cccc(Nc2nc(-c3ccccc3)nc3ccccc23)c1,inconclusive: 3%
8,CCCN1C2CCCC1CC(NC(=O)c1ccccc1OC)C2 (configuration not stated),inconclusive: -49.1%
9,Cc1nn(-c2cc(C(F)(F)F)ccn2)c(=O)o1,inconclusive: 69.7%
10,O=C1CCCC/C1=C\Nc1ccc(S(=O)(=O)Nc2cnc3ccccc3n2)cc1,inactive: 2.1%
11,Cc1cc(C)n(S(=O)(=O)c2cccc([N+](=O)[O-])c2)n1,inconclusive: -33.9%
12,CCn1cc(-c2cc(C(=O)O)c3ccccc3n2)c(C)n1,inactive: -0.5%
13,Nc1c(C(=O)c2ccccc2)sc2nsc(SCCN3CCCC3)c12,inconclusive: 61.4%
14,C=CCN(c1nc(C)cc(OC)n1)S(=O)(=O)c1ccc(C)cc1,inconclusive: 21.4%
15,O=C1NC2=C(C(=O)CCC2)C(c2ccccc2Cl)N1 (configuration not stated),inconclusive: -8.2%
16,CNc1cnc(-c2ccsc2)cn1,inactive: -0.5%
17,O=C(NCC(=O)N1CCCCCC1)c1ccc(Br)cc1,inconclusive: -3.6%
18,COC(=O)C(=Nc1ccccc1)/C(C(=O)C(=O)N(C)c1ccccc1)=C(\O)c1ccccc1,inconclusive: 11.9%
19,Nc1ccc(CCc2ccc(N)cc2)cc1,inconclusive: 8.9%
20,O=C1/C(=C\c2ccc(Cl)c(Cl)c2)N2CCC1CC2,inconclusive: -23.9%
21,Cc1cc(C)cc(C(=O)NCc2ccc3c(c2)OCO3)c1,inconclusive: -18.8%
22,Cc1ccc(CN2CCN(C(=O)c3cccc4ccccc34)CC2)cc1,inconclusive: -0.2%
23,CNC(=O)C1Cc2c(-c3ccc4c(c3)OCO4)ccnc2O1 (configuration not stated),inactive: -2.1%

row,Compound,inhibition
1,C=CC1CN2CCC1CC2C(OC(C)=O)c1ccnc2ccc(OC)cc12 (configuration not stated),inconclusive: 18.8%
2,Cc1ccc(OC(=O)C2CSC3(C)CCC(=O)N23)c(Br)c1 (configuration not stated),inconclusive: -5.9%
3,CN1C(=O)c2ccccc2C(C(=O)O)C1c1cccc(F)c1 (configuration not stated),inconclusive: -33.2%
4,CCOc1ccc(Nc2oc(-c3cccc(Cl)c3)nc2C#N)cc1,inactive: 1.8%
5,Cc1cccc(C2N=C(N)Nc3nc4ccccc4n32)c1 (configuration not stated),inconclusive: 44.3%
6,CC(=O)N(C)c1ccc(NC(=O)CCN2C(=O)c3ccccc3C2=O)cc1,inconclusive: -24.9%
7,Oc1ccccc1-c1nc(N2CCN(Cc3ccccc3)CC2)c2ccccc2n1,inconclusive: -7.7%
8,CN(C)CCNC(=O)c1csc(Nc2cccc3ccccc23)n1,inconclusive: -43.7%
9,COC(=O)c1ccsc1NC(=O)CN1CCN(c2ccc(F)cc2)CC1,inconclusive: -4%
10,CC(C)CC(=O)Nc1ccc(F)c(Cl)c1,inconclusive: -9.6%
11,CCOc1ccc(-n2c(=O)c3ccccc3c3ccccc3c2=O)cc1,inconclusive: 131%
12,C/C(=N\NC(=O)c1ccccc1[N+](=O)[O-])c1c(O)cc(C)oc1=O,inactive: -13.3%
13,CC(C(=O)NCC1CCCO1)n1cc([N+](=O)[O-])cn1 (configuration not stated),inactive: -2.1%
14,CC(=O)NC12CC3CC(C)(C1)CC(NC(C)=O)(C3)C2,inactive: 4.3%
15,Cc1cc(/C=C2\C(=O)NC(=O)N(c3ccccc3)C2=O)c(C)n1-c1ccc(C(=O)O)c(Cl)c1,inconclusive: -2.6%
16,COc1ccc(/C=N/NC(=O)c2ccoc2C)cc1O,inactive: 29.6%
17,CCN1C(=O)[C@H]2[C@H]3CN=C(SCC4CC4)N3[C@@](CC)(C(=O)OC)[C@H]2C1=O,inactive: -3.1%
18,Cc1ccc2oc(C(=O)NCc3ccc4c(c3)OCO4)c(C)c2c1,inactive: 0.9%
19,CCOc1ccc(OCC)c(NC(=O)c2ccc(CNc3c(N4CCCC4)c(=O)c3=O)cc2)c1,inactive: -1.4%
20,O=C1CN(C(=O)COC(=O)c2cc(Cl)ccc2[N+](=O)[O-])c2ccccc2N1,inactive: -2.4%
21,CC(C)c1nnc(NC(=O)CCC(=O)Nc2ccccc2)s1,inconclusive: 15.7%
22,COCc1cc(=O)[nH]c(-c2csc(C)n2)n1,inconclusive: -5%
23,COc1cc(NC(=O)c2ccc([N+](=O)[O-])cc2)ccc1NC(=O)C(C)C,inactive: 2%

row,Compound,inhibition
1,O=C1c2ccccc2C(c2nnnn2-c2ccc3c(c2)OCCO3)N1Cc1cccnc1 (configuration not stated),inactive: -1.9%
2,O=C(CN1C(=O)C2(OCCO2)c2cc(Br)ccc21)NO,inconclusive: -3%
3,O=[N+]([O-])c1cc2c(cc1CN1CCN(CCOCCO)CC1)OCO2,inconclusive: -14.9%
4,CCc1nc(C)cn1S(=O)(=O)c1ccc2c(c1)OCCO2,inactive: -8.4%
5,Nc1cc(N2CCCCC2)c(Cl)cc1[N+](=O)[O-],inactive: 6%
6,O=C(N/N=C/c1ccccc1)c1ccc(N2CCCC2=O)cc1,inactive: -8.3%
7,CCn1c(SCC(=O)c2ccc(F)cc2)nnc1-c1ccoc1C,inconclusive: -6.1%
8,Cc1cccc(Cn2nc(C(C)(C)C)cc2C(=O)Nc2ccc(F)cc2)c1,inconclusive: -55.5%
9,C/C(=N\O)c1cc(Cl)cc(Cl)c1O,inconclusive: -57.9%
10,CCOC(=O)c1cnc(-n2nc(C)cc2C)nc1NC1CCCC1,inconclusive: 17.1%
11,O=C(Nc1nnc([C@@H]2C[C@H](O)[C@@H](CO)O2)s1)c1ccccc1Cl,inactive: -2.2%
12,CCN(CC(=O)NCc1ccc(Cl)cc1)C(=O)COc1cccc(C(F)(F)F)c1,inconclusive: -2.8%
13,CCN(CC)c1nc(N)c2c(N)nc3c(c2c1C#N)CC(c1ccccc1)O3 (configuration not stated),inactive: 5.5%
14,O=C(CCN1CCN(CCO)CC1)Nc1ccccc1,inconclusive: 0.4%
15,Cc1ccc(C(=O)O/N=C(\N)c2ccccc2)c(Cl)c1,inconclusive: -2.4%
16,CCOC(=O)c1cc2c(C)nn(-c3ccccc3)c2s1,inconclusive: 10%
17,N#Cc1ccccc1Sc1ccccc1N,inactive: 7.8%
18,COC(=O)c1ccc(CNC(=O)COC(=O)/C=C/c2cc(OC)c(OC)c(OC)c2)cc1,inactive: -2.8%
19,COc1ccccc1-n1c(CNC(=O)c2ccco2)nnc1SCC(=O)Nc1ccc(F)cc1,inconclusive: -18.4%
20,COc1ccc(CCNc2c3ccccc3nc3ccccc23)cc1OC,inconclusive: 17.6%
21,Cc1ccc2c(c1)C(c1ccccc1)CC(=O)O2 (configuration not stated),inconclusive: 11.3%
22,COc1ccc(CNC(=O)N[C@@H](Cc2c[nH]c3ccccc23)C(=O)O)cc1,active: 77.2%
23,CCc1cc(C(=O)c2ccc(OC)cc2)c(N)s1,inconclusive: 18.6%

# A portion taken from the entries so far, for reference:
row,Compound,inhibition
15,Cc1ccc(C(=O)O/N=C(\N)c2ccccc2)c(Cl)c1,inconclusive: -2.4%
16,CCOC(=O)c1cc2c(C)nn(-c3ccccc3)c2s1,inconclusive: 10%
